These are yes or no findings as the source states them, for the method shown. Binding seen in cells or lysates may run through a third protein. Some entries that bind do so weakly or less than the wild type.
Legend:
Lck [1] = target: Lck (UniProt P06239); assay: co-immunoprecipitation, Western blot against Lck
Lck [2] = target: Lck (UniProt P06239); assay: co-immunoprecipitation from 293TM cells with recombinant HER-2 beads, Western blot against Lck, densitometry

Amino acid sequences for entries named in this document (tags omitted).
UniProt P06239: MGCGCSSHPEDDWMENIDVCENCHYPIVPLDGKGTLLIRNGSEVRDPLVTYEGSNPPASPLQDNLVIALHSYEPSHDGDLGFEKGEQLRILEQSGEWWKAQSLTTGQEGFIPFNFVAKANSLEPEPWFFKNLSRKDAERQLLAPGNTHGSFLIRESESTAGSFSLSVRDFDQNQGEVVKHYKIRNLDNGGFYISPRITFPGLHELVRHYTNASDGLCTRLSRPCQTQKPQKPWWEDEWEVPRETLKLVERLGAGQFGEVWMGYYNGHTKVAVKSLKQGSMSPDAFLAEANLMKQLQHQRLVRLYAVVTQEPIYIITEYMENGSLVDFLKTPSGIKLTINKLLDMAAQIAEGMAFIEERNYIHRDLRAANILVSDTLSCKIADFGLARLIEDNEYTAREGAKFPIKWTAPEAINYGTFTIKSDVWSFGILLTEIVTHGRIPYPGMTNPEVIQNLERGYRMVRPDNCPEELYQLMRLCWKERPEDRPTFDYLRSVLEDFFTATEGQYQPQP

binding (Lck [1]): binds
binding (Lck [2]): binds
B1: Anti-HER-2 DARPin Tri-TAC (full-length Trifunctional T cell-antigen coupler, configuration 1) (protein)
chain: MSRGSDLGKKLLEAARAGQDDEVRILMANGADVNAKDEYGLTPLYLATAHGHLEIVEVLLKNGADVNAVDAIGFTPLHLAAFIGHLEIAEVLLKHGADVNAQDKFGKTAFDISIGNGNEDLAEILQKLNEQKLISEEDLNPGGGGGSGGGGSGGGGSGGGGSGSMDIQMTQTTSSLSASLGDRVTISCRASQDIRNYLNWYQQKPDGTVKLLIYYTSRLHSGVPSKFSGSGSGTDYSLTISNLEQEDIATYFCQQGNTLPWTFAGGTKLEIKGGGGSGGGGSGGGGSGGGGSEVQLQQSGPELVKPGASMKISCKASGYSFTGYTMNWVKQSHGKNLEWMGLINPYKGVSTYNQKFKDKATLTVDKSSSTAYMELLSLTSEDSAVYYCARSGYYGDSDWYFDVWGQGTTLTVFSTSGGGGSLESGQVLLESNIKVLPTWSTPVQPMALIVLGGVAGLLLFIGLGIFFCVRCRHRRRQAERMSQIKRLLSEKKTCQCPHRFQKTCSPI
